Experimental data from patent US20100298285A1, “Biclycloheteroaryl Compounds as P2x7 Modulators and Uses Thereof” (priority 2006, published 2010).
The name of at least one read-out is uncertain.

Tested on: IL-1β release, THP-1 cells
Assay: IL-1β release assay in differentiated THP-1 cells stimulated with BzATP (Example 9)
Assay type: cell-based, human
Conditions: BzATP 250 uM, + symbols = 0.3 μM, * symbols = 0.1 μM compound concentration
Method in brief: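 THP-1 cells differentiated 16 h with 100 ng/mL LPS + 100 ng/mL IFN-γ, re-primed 2 h with fresh LPS 100 ng/mL, pretreated 30 min with compound, then stimulated with BzATP 250 uM final for 45 min. Supernatant IL-1β by ELISA; background-adjusted % inhibition, IC50 from four-parameter logistic fit.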

SMILES	IL-1β% Inhib. @ 0.3 or 0.1 μM
Cc1ccc2c(c1NC(=O)Cc1ccc(C(F)(F)F)c(F)c1)CCN(C(=O)C1CCC1)C2 [Compound 3473]	++++ (compound exhibited 76% or greater inhibition at 0.3 μM concentration)
COc1ccc2c(c1NC(=O)Cc1ccc(C(F)(F)F)c(F)c1)CCN(C(=O)C(C)(C)C)C2 [Compound 3474, N-[2-(2,2-Dimethyl-propionyl)-6-methoxy-1,2,3,4-tetrahydro-isoquinolin-5-yl]-2-(3-fluoro-4-trifluoromethyl-phenyl)-acetamide]	++++ (compound exhibited 76% or greater inhibition at 0.3 μM concentration)
COc1ccc2c(c1NC(=O)Cc1ccc(C(F)(F)F)c(F)c1)CCN(C(=O)C1CC1)C2 [Compound 3475]	+++ (compound exhibited 51-75% inhibition at 0.3 μM concentration)
COc1ccc2c(c1NC(=O)Cc1ccc(C(F)(F)F)c(F)c1)CCN(C(=O)C1(O)CC1)C2 [Compound 3476, 2-(3-Fluoro-4-trifluoromethyl-phenyl)-N-[2-(1-hydroxy-cyclopropanecarbonyl)-6-methoxy-1,2,3,4-tetrahydro-isoquinolin-5-yl]-acetamide]	++ (compound exhibited 26-50% inhibition at 0.3 μM concentration)
COc1ccc2c(c1NC(=O)Cc1ccc(C(F)(F)F)c(F)c1)CCN(C(=O)C1(O)CCCCC1)C2 [Compound 3477, 2-(3-Fluoro-4-trifluoromethyl-phenyl)-N-[2-(1-hydroxy-cyclohexanecarbonyl)-6-methoxy-1,2,3,4-tetrahydro-isoquinolin-5-yl]-acetamide]	+++ (compound exhibited 51-75% inhibition at 0.3 μM concentration)
COc1ccc2c(c1NC(=O)Cc1ccc(C(F)(F)F)c(F)c1)CCN(C(=O)CC1(O)CCCC(C)(C)C1)C2 (stereo not shown) [Compound 3478, 2-(3-Fluoro-4-trifluoromethyl-phenyl)-N-{2-[2-(1-hydroxy-3,3-dimethyl-cyclohexyl)-acetyl]-6-methoxy-1,2,3,4-tetrahydro-isoquinolin-5-yl}-acetamide]	+++ (compound exhibited 51-75% inhibition at 0.3 μM concentration)
COc1ccc2c(c1NC(=O)Cc1ccc(C(F)(F)F)c(F)c1)CCN(C(=O)C(C)(C)CO)C2 [Compound 3479, 2-(3-Fluoro-4-trifluoromethyl-phenyl)-N-[2-(3-hydroxy-2,2-dimethyl-propionyl)-6-methoxy-1,2,3,4-tetrahydro-isoquinolin-5-yl]-acetamide]	+++ (compound exhibited 51-75% inhibition at 0.3 μM concentration)
Cc1ccc2c(c1NC(=O)Cc1ccc(C(F)(F)F)c(F)c1)CCN(C(=O)[C@H]1CCN1)C2 [Compound 3480]	++++ (compound exhibited 76% or greater inhibition at 0.3 μM concentration)
COc1ccc2c(c1NC(=O)Cc1ccc(C(F)(F)F)c(F)c1)CCN(C(=O)C(C)(C)O)C2 [Compound 3481]	+ (compound exhibited 0-25% inhibition at 0.3 μM concentration)
CC(C)(C)C(=O)N1CCc2c(ccc(C3CC3)c2NC(=O)Cc2ccc(C(F)(F)F)c(F)c2)C1 [Compound 3482]	++++ (compound exhibited 76% or greater inhibition at 0.3 μM concentration)
